Assay [1] concerns the target 粒细胞-巨噬细胞集落刺激因子 (human granulocyte-macrophage colony-stimulating factor, GM-CSF) (human) (UniProt P04141). Kind of assay: Biolayer interferometry type assay: GM-CSF loaded on SA sensor.
Assay [2] shares this target. The experiment in a line: Indirect phage ELISA: GM-CSF coated at 10 μg/mL, phage-displayed nanobody clones, HRP anti-M13 detection.

Amino acid sequences for entries named in this document (tags omitted). Residues count along the entry.
UniProt P04141, residues 18-144: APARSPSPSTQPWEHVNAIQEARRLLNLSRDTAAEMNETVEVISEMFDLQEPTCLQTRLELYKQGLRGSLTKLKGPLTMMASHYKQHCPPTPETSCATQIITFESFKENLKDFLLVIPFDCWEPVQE

These are yes or no findings as the source states them, for the method shown. Some binding calls cover weakened binding; strength is not graded here.

B1: 抗GM-CSF纳米抗体G1 (VHH)
VHH: QLQLVESGGGLVQAGGSLRLSCAVSGRPSNVYDMGWFRRVPGKESRLMAYINWSRGSTYYADSVKGRFTISRDNTNNTVYLQMNSLKPEDTAVYYCAARAGPGTPAYNSWGQGTQVTVSS
B1: the binding result in assay [1] and in assay [2] was “binds” throughout.

The values above are taken from CN111690063A.
